No constants are given. Whether binding was seen depends on the method and setting. In cells and extracts the contact can be indirect. Some results given as binding are weak or reduced against the parent protein; the word gives no strength.

Protein sequences, listed by entry. Tags and fused reporters are not part of them.
UniProt Q8R4B8: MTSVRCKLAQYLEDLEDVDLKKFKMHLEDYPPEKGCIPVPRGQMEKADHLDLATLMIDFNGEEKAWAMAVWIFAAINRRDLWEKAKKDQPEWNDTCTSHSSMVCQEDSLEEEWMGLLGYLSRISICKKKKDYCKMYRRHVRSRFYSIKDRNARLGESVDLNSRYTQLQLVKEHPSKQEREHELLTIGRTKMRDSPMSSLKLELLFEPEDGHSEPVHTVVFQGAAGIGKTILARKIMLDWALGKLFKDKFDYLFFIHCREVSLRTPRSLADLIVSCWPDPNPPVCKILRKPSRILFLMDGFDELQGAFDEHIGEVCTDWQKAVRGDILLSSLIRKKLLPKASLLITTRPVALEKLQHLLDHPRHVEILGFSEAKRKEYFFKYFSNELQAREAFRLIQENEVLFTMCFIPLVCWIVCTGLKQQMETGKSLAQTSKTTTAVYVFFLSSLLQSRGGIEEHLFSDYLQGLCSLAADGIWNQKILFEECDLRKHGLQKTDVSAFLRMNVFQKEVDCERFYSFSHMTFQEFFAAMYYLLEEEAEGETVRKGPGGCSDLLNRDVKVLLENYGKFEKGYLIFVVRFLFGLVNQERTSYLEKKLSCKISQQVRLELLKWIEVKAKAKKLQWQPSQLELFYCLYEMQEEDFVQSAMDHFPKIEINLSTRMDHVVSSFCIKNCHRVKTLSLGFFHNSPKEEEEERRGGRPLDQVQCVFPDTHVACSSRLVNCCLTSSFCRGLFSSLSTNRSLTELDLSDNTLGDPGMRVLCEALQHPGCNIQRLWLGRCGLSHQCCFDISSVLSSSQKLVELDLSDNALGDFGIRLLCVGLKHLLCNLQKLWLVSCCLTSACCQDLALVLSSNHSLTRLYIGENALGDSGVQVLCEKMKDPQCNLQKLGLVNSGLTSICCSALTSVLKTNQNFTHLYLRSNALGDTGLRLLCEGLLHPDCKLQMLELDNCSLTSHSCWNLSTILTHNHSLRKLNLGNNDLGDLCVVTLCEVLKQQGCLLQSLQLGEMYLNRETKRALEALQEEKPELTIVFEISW

Assay [1] addresses T1, ASC [apoptosis-associated speck-like protein containing a caspase recruitment domain (CARD)] (mouse (endogenous in VAT and pancreas)) (UniProt Q9EPB4).
T1 sequence: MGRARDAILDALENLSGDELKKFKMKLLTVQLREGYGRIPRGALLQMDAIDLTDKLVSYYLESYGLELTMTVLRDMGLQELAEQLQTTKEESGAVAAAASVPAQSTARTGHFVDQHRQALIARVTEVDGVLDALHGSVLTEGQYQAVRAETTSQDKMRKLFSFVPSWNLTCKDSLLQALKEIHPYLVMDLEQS
Description: condition: only naïve or sham-operated control mice (no SCI); co-IP; as a5, pancreas lysate of naive or sham-operated control mice.

In assay [2] the target is NLRP3 (NOD-like receptor family, pyrin domain containing 3) (mouse (endogenous in VAT and pancreas)) (UniProt Q8R4B8). The description is as above.
Assay [3] has as its target T1, ASC [apoptosis-associated speck-like protein containing a caspase recruitment domain (CARD)] (mouse (endogenous in VAT and pancreas)). Put plainly: condition: only naïve or sham-operated control mice (no SCI); co-IP; as a3, VAT lysate of naive or sham-operated control mice.
The target of assay [4] is NLRP3 (NOD-like receptor family, pyrin domain containing 3) (mouse (endogenous in VAT and pancreas)) (UniProt Q8R4B8). The description is as above.
Assay [5] addresses T1, ASC [apoptosis-associated speck-like protein containing a caspase recruitment domain (CARD)] (mouse (endogenous in VAT and pancreas)). Description: co-IP; VAT lysate of mice 1 month post-SCI; 200 ug precleared lysate, 5 ug/ml anti-NLRP3 or anti-ASC overnight at 4 C, Trueblot IgG beads, six washes in lysis buffer (1% Triton X-100, 1% Nonidet P40, 0.1% SDS); immunoblot.
Assay [6] concerns the target NLRP3 (NOD-like receptor family, pyrin domain containing 3) (mouse (endogenous in VAT and pancreas)) (UniProt Q8R4B8). Described as above.
Assay [7] concerns the target T1, ASC [apoptosis-associated speck-like protein containing a caspase recruitment domain (CARD)] (mouse (endogenous in VAT and pancreas)). Description: co-IP; pancreas lysate of mice 1 month post-SCI; 200 ug precleared lysate, 5 ug/ml anti-NLRP3 or anti-ASC overnight at 4 C, Trueblot IgG beads, six washes in lysis buffer (1% Triton X-100); immunoblot.
Assay [8] has as its target NLRP3 (NOD-like receptor family, pyrin domain containing 3) (mouse (endogenous in VAT and pancreas)) (UniProt Q8R4B8). The assay is described as above.

B1: pro-forms of caspase-1 (45, 50 kDa) (protein, UniProt P29452 1-402)
chain: MADKILRAKRKQFINSVSIGTINGLLDELLEKRVLNQEEMDKIKLANITAMDKARDLCDHVSKKGPQASQIFITYICNEDCYLAGILELQSAPSAETFVATEDSKGGHPSSSETKEEQNKEDGTFPGLTGTLKFCPLEKAQKLWKENPSEIYPIMNTTTRTRLALIICNTEFQHLSPRVGAQVDLREMKLLLEDLGYTVKVKENLTALEMVKEVKEFAACPEHKTSDSTFLVFMSHGIQEGICGTTYSNEVSDILKVDTIFQMMNTLKCPSLKDKPKVIIIQACRGEKQGVVLLKDSVRDSEEDFLTDAIFEDDGIKKAHIEKDFIAFCSSTPDNVSWRHPVRGSLFIESLIKHMKEYAWSCDLEDIFRKVRFSFEQPEFRLQMPTADRVTLTKRFYLFPGH
Consider B1, for which the binding result is “no binding” in assay [1]; “no binding” in assay [2]; “no binding” in assay [3]; “no binding” in assay [4]; “binds” in assay [5]; “binds” in assay [6]. For the same molecule, the binding result in assay [7] and in assay [8] was “binds” throughout.

B2: Caspase-3 (protein, UniProt P70677 1-277)
chain: MENNKTSVDSKSINNFEVKTIHGSKSVDSGIYLDSSYKMDYPEMGICIIINNKNFHKSTGMSSRSGTDVDAANLRETFMGLKYQVRNKNDLTREDILELMDSVSKEDHSKRSSFVCVILSHGDEGVIYGTNGPVELKKLTSFFRGDYCRSLTGKPKLFIIQACRGTELDCGIETDSGTDEEMACQKIPVEADFLYAYSTAPGYYSWRNSKDGSWFIQSLCSMLKLYAHKLEFMHILTRVNRKVATEFESFSLDSTFHAKKQIPCIVSMLTKELYFYH
Turning to B2, the binding entry in assay [5], in assay [6], in assay [7] and in assay [8] was “no binding” in each case.

(Values after paper PMC3789215.)
